Experimental data: PubChem BioAssay AID1259304 (Sanger Institute, 2017)

Screen: 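Kinase knock-downs that add to growth loss from colorectal cancer drugs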 (secondary deconvolution rescreen of primary hits)
Cell system: HT115 human colorectal cancer cells
Reagents: single siRNA against human genes
Challenge: anchor drugs BYL719 at 1 µM, cetuximab at 5 µg/ml or trametinib at 10 nM, each set against DMSO vehicle
Measurement: 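Replicate-averaged viability as a fraction of non-targeting control, with a drug-siRNA synergy score from joint versus separate effects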
Reading the numbers: synergy score with BYL719: higher = stronger synthetic lethal interaction with BYL719; synergy score with cetuximab: higher = stronger synthetic lethal interaction with cetuximab; synergy score with trametinib: higher = stronger synthetic lethal interaction with trametinib; viability, siRNA with trametinib: higher = more cells surviving
Rule for the call: 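a synergy score over 0.10 with at least one of the three anchor drugs makes an active call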
Meaning of the calls: active = synergy with at least one anchor drug; inactive = no synergy with any anchor drug
This is one part, drawn at random, of 160 reagents. 88 of them (55%) were called active. 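Four siRNAs per gene, each called on its own in one cell line; calls are not confirmed gene-level hits.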 Reagents against one gene are numbered here. Not all columns of the deposit are shown. Not given: the amount of reagent, the time to read-out.

| target | siRNA no. | synergy score with BYL719 | synergy score with cetuximab | synergy score with trametinib | viability, siRNA with trametinib (fraction of control) | outcome |
| --- | --- | --- | --- | --- | --- | --- |
| GRK5 | 1 | 0.00544 | 0.0783 | 0.283 | 0.691 | active |
| GRK5 | 2 | -0.0448 | -0.0624 | 0.0473 | 0.927 | inactive |
| GRK5 | 3 | 0.0179 | -0.0802 | 0.264 | 0.562 | active |
| GRK5 | 4 | 0.056 | 0.105 | 0.148 | 0.736 | active |
| CRIM1 | 1 | -0.0937 | 0.00304 | 0.154 | 0.557 | active |
| CRIM1 | 2 | -0.042 | -0.0172 | 0.106 | 0.701 | active |
| CRIM1 | 3 | -0.0212 | -0.00664 | 0.13 | 0.745 | active |
| CRIM1 | 4 | 0.101 | 0.137 | 0.234 | 0.475 | active |
| STK36 | 1 | 0.0563 | 0.056 | 0.264 | 0.547 | active |
| STK36 | 2 | -0.00653 | 0.0354 | 0.25 | 0.698 | active |
| STK36 | 3 | 0.0221 | 0.0548 | 0.165 | 0.509 | active |
| STK36 | 4 | 0.0266 | -0.0711 | 0.0783 | 0.589 | inactive |
| IKBKB | 1 | -0.124 | 0.011 | 0.0441 | 0.381 | inactive |
| IKBKB | 2 | 0.0191 | 0.0718 | 0.124 | 0.701 | active |
| IKBKB | 3 | -0.00469 | -0.136 | 0.0306 | 0.944 | inactive |
| IKBKB | 4 | 0.0255 | -0.0176 | 0.0252 | 0.613 | inactive |
| GUCY2D | 1 | -0.0839 | 0.0273 | 0.258 | 0.586 | active |
| GUCY2D | 2 | 0.119 | 0.165 | 0.261 | 0.397 | active |
| GUCY2D | 3 | 0.0454 | 0.0331 | 0.339 | 0.479 | active |
| GUCY2D | 4 | -0.106 | -0.0539 | 0.124 | 0.817 | active |

2 successive reagents from above, for reference:
| target | siRNA no. | synergy score with BYL719 | synergy score with cetuximab | synergy score with trametinib | viability, siRNA with trametinib (fraction of control) | outcome |
| --- | --- | --- | --- | --- | --- | --- |
| IKBKB | 4 | 0.0255 | -0.0176 | 0.0252 | 0.613 | inactive |
| GUCY2D | 1 | -0.0839 | 0.0273 | 0.258 | 0.586 | active |
